Reference: paper PMC8387021

The chains behind the UniProt entries cited, without tags or fusion partners. Residues count along the entry.
UniProt Q03164, residues 869-1124: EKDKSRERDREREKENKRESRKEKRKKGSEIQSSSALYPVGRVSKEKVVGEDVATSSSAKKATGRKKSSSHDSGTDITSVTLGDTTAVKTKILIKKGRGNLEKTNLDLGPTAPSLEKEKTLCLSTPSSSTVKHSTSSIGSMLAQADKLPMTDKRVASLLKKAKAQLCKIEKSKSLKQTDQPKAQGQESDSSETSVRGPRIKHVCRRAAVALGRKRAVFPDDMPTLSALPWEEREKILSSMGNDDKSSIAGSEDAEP
UniProt Q8WYH8: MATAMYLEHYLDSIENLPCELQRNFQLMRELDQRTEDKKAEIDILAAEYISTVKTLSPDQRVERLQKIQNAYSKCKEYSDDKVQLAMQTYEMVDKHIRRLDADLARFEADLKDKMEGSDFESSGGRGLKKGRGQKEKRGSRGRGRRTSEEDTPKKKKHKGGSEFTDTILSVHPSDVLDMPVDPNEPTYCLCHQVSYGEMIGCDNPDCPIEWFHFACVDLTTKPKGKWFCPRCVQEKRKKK

B1: PHF16 (protein, UniProt Q92613 1-823)
chain: MKRHRPVSSSDSSDESPSTSFTSGSMYRIKSKIPNEHKKPAEVFRKDLISAMKLPDSHHINPDSYYLFADTWKEEWEKGVQVPASPDTVPQPSLRIIAEKVKDVLFIRPRKYIHCSSPDTTEPGYINIMELAASVCRYDLDDMDIFWLQELNEDLAEMGCGPVDENLMEKTVEVLERHCHENMNHAIETEEGLGIEYDEDVICDVCRSPDSEEGNDMVFCDKCNVCVHQACYGILKVPEGSWLCRSCVLGIYPQCVLCPKKGGALKTTKTGTKWAHVSCALWIPEVSIACPERMEPITKISHIPPSRWALVCNLCKLKTGACIQCSIKSCITAFHVTCAFEHGLEMKTILDEGDEVKFKSYCLKHSQNRQKLGEAEYPHHRAKEQSQAKSEKTSLRAQKLRELEEEFYSLVRVEDVAAELGMPTLAVDFIYNYWKLKRKSNFNKPLFPPKEDEENGLVQPKEESIHTRMRMFMHLRQDLERVRNLCYMISRREKLKLSHNKIQEQIFGLQVQLLNQEIDAGLPLTNALENSLFYPPPRITLKLKMPKSTPEDHRNSSTETDQQPHSPDSSSSVHSIRNMQVPQESLEMRTKSYPRYPLESKNNRLLASLSHSRSEAKESSPAWRTPSSECYHGQSLGKPLVLQAALHGQSSIGNGKSQPNSKFAKSNGLEGSWSGNVTQKDSSSEMFCDQEPVFSPHLVSQGSFRKSTVEHFSRSFKETTNRWVKNTEDLQCYVKPTKNMSPKEQFWGRQVLRRSAGRAPYQENDGYCPDLELSDSEAESDGNKEKVRVRKDSSDRENPPHDSRRDCHGKSKTHPLSHSSMQR

Target: fGAL4-MLL 869/1124 (UniProt Q03164)
Assay: affinity purification with mass spectrometry; fGAL4-MLL 869/1124 or MTMTh purified from the chromatin fraction of HEK293T cells by fanChIP; LC-MS/MS

Row | Molecule | binding
1 | ING5 (from UniProt Q8WYH8 1-240) | binds
2 | B1 | binds

No constants are given. Whether binding was seen depends on the method and setting. Binding seen in cells or lysates may run through a third protein. A yes stands for co-enrichment or nearness to the bait. Other partners may have been found.
